PubChem BioAssay AID504774 | Drosophila RNAi Screening Center – 2011

- Purpose: 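Knock-downs that shift viability of MMS-exposed cells relative to untreated ones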 (primary screen)
- Cell system: Drosophila Kc167 cells
- Knock-down reagent: long dsRNA against Drosophila genes, about 0.25 µg dsRNA per well
- Timing: about 6 days: 3 days knock-down, then 3 days with or without MMS
- Treatment: methyl methanesulphonate 0.004% (w/v) for 3 days after knock-down
- Detection: 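Viability in wells given MMS, read as ATP luminescence, normalised by quantiles plate by plate and averaged across replicates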
- Reading the numbers: mean viability with MMS: higher = more surviving cells after MMS
The deposit covers about 23,000 reagents; this is a random part of those with a known target gene and a result. 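Values are quantile-normalised luminescence on an arbitrary scale; higher means more cells surviving MMS.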 Names joined by + are all predicted targets of the reagent. Further read-outs or replicates are left out here.

mean viability with MMS, by gene and reagent
CG9886: DRSC00732 3.58e6
Cpr49Af: DRSC07202 3.43e6
H2.0: DRSC03340 3.63e6; DRSC22555 3.77e6
CG1965: DRSC12577 3.73e6; DRSC21828 3.41e6
CG4045: DRSC18518 3.56e6
Adar: DRSC17725 3.57e6
yellow-d2: DRSC04591 3.58e6

Part of the list above, set out differently:
{"gene": "CG9886", "DRSC id": "DRSC00732", "mean viability with MMS": 3.58e6}
{"gene": "Cpr49Af", "DRSC id": "DRSC07202", "mean viability with MMS": 3.43e6}
{"gene": "H2.0", "DRSC id": "DRSC03340", "mean viability with MMS": 3.63e6}

The results go on:
mean viability with MMS, by gene and reagent
CG32833: DRSC04596 3.62e6
eIF3l: DRSC10530 3.39e6
Kua: DRSC02100 3.72e6
drn: DRSC15147 3.25e6
CG6508: DRSC02963 3.52e6
CG14020: DRSC02350 3.50e6
Cth: DRSC07422 3.55e6
Vha100-1: DRSC14148 3.64e6
msl-3: DRSC11371 3.68e6
CG5412: DRSC15796 3.54e6
Incenp: DRSC06116 3.77e6; DRSC21950 3.51e6
CG31219: DRSC15140 3.54e6
GstE12: DRSC04047 3.28e6
asrij: DRSC04175 3.58e6
Pkn + Tsen15: DRSC21969 3.35e6
Pgant2: DRSC00587 3.67e6
CG4991: DRSC19928 3.79e6
RecQ4: DRSC11265 3.30e6
